From doi:10.1101/2025.08.29.668156

Assays:
Test in all cases: proximity labelling
Conditions in all cases: remark: other sources report otherwise
[1] = target: T1, LMNA N-terminally fused to TurboID, P02545
T1 chain: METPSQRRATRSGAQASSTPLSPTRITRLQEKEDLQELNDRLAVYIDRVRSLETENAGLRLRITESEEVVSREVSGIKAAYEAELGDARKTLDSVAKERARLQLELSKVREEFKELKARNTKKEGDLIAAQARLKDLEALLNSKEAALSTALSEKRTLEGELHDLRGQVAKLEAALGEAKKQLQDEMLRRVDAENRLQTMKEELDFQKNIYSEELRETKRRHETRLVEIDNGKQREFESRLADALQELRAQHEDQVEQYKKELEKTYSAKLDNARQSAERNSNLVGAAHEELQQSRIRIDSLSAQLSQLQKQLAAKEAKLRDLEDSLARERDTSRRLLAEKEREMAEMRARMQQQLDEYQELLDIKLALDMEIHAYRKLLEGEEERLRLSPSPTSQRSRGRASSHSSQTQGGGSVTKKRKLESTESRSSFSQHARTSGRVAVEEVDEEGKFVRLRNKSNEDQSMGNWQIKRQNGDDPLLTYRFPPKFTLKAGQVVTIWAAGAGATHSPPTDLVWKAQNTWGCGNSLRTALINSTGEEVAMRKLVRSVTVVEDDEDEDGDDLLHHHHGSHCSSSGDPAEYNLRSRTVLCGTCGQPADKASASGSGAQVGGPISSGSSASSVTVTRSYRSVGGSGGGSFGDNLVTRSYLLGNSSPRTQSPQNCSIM

[2] = target: T2, LMNA N-terminally fused to BASU, P02545
T2 chain: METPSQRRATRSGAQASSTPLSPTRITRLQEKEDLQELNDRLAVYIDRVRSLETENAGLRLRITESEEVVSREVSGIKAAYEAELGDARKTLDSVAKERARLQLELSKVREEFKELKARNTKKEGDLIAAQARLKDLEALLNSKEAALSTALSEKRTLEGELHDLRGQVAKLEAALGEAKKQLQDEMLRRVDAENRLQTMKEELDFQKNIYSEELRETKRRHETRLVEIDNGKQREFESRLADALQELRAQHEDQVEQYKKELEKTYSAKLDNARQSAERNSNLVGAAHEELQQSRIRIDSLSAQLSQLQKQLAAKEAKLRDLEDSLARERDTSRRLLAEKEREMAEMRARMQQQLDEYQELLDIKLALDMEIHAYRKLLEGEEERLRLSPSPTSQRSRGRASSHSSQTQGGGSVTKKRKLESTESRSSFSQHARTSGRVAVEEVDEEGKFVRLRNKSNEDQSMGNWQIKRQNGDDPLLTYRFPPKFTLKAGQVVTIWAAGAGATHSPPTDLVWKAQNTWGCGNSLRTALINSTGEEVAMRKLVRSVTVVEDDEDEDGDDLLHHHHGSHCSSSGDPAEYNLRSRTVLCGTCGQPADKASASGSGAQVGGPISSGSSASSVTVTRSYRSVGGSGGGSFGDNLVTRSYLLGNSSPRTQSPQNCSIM

[3] = target: T3, LMNA N-terminally fused to ultraID, P02545
T3 chain: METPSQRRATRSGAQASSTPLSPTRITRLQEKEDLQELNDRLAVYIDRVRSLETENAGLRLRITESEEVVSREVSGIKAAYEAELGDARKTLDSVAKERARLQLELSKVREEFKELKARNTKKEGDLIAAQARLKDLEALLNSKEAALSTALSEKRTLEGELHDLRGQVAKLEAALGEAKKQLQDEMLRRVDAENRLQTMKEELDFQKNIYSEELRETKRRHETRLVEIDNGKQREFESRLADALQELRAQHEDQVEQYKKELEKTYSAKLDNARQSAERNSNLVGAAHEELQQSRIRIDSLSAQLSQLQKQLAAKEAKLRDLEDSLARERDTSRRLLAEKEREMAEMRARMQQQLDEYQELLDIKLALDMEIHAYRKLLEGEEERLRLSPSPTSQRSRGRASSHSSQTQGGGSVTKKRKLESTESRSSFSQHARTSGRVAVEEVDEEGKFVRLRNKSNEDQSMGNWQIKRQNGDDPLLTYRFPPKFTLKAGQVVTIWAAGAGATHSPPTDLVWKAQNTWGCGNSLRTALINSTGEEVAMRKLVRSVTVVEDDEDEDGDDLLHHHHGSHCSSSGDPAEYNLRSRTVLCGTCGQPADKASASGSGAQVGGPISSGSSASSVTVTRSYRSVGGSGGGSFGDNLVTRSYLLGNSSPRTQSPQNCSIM

[4] = target: T4, LMNA N-terminally fused to miniTurbo, P02545
T4 chain: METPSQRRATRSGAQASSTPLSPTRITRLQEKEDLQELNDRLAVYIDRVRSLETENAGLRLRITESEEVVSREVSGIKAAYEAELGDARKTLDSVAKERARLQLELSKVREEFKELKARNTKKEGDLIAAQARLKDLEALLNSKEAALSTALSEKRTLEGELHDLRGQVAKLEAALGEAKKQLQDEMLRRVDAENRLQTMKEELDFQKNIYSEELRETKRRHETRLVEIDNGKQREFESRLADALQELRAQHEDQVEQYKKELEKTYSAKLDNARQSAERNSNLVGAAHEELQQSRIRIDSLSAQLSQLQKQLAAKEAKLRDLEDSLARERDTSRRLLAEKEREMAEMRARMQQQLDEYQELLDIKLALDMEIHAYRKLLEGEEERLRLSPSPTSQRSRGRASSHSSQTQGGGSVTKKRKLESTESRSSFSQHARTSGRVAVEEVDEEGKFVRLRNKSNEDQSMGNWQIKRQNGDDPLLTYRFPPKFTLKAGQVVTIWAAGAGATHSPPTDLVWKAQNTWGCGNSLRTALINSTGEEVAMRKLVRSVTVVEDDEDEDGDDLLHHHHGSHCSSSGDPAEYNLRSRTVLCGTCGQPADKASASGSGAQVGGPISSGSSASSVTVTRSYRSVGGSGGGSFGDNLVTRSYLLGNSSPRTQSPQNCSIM

Measured: binding

B1: EMD, P50402 1-254 (protein)
chain: MDNYADLSDTELTTLLRRYNIPHGPVVGSTRRLYEKKIFEYETQRRRLSPPSSSAASSYSFSDLNSTRGDADMYDLPKKEDALLYQSKGYNDDYYEESYFTTRTYGEPESAGPSRAVRQSVTSFPDADAFHHQVHDDDLLSSSEEECKDRERPMYGRDSAYQSITHYRPVSASRSSLDLSYYPTSSSTSFMSSSSSSSSWLTRRAIRPENRAPGAGLGQDRQVPLWGQLLLFLVFVIVLFFIYHFMQAEEGNPF
binds: [1] | [2] | [3] | [4]

Results are given in words; binding and its absence hold for the method and conditions named. Binding seen in cells or lysates may run through a third protein. These calls come from enrichment with a bait or labelling near it, and not all partners need be listed. Tags and fused reporters may be left off the sequences shown.
